This is one part of the list. Single values are uncertain, as repeats are few or missing.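 Imaging used 1,536-well plates; nuclei positive for cleaved PARP by antibody were divided by total DNA-stained nuclei to yield the apoptosis fraction. Doses for screening kept most cells viable, and cell lines differ markedly in resting and induced cleaved-PARP levels.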

For this test, the system named is MZ2-MEL. Description: cleaved PARP positive nuclei fraction relative to DMSO control; melanoma cells; higher = more apoptosis. Particulars: library dose: low library concentration; 72 h.
For the compound `O=c1[nH]nc(Sc2ncc([N+](=O)[O-])s2)n1-c1ccc2c(c1)OCCO2` + COc1ccc(COc2ccc(Cc3cnc(N)nc3N)cc2OC)cc1 [GW2580] (first compound 0.2 µM, partner dose 1 µM), the “cleaved PARP positive nuclei fraction” value came to 80.7%.

With `COc1cc([C@@H]2c3cc4c(cc3[C@@H](O[C@@H]3O[C@@H]5CO[C@@H](C)O[C@H]5[C@H](O)[C@H]3O)[C@H]3COC(=O)[C@H]23)OCO4)cc(OC)c1O` [etoposide] + O=S(=O)(c1ccccc1)N(CC(F)(F)F)c1ccc(C(O)(C(F)(F)F)C(F)(F)F)cc1 [T0901317] (first compound 0.02 µM, partner dose 1.4 µM), the “cleaved PARP positive nuclei fraction” value was found to be 124%.

For `O=c1[nH]nc(Sc2ncc([N+](=O)[O-])s2)n1-c1ccc2c(c1)OCCO2` + O=S(=O)(c1ccccc1)N(CC(F)(F)F)c1ccc(C(O)(C(F)(F)F)C(F)(F)F)cc1 [T0901317] (first compound 0.2 µM, partner dose 1.4 µM), the “cleaved PARP positive nuclei fraction” value worked out at 97.9%.

Consider `Cc1cc(Nc2cc(N3CCN(C)CC3)nc(Sc3ccc(NC(=O)C4CC4)cc3)n2)n[nH]1` [Tozasertib] + Cn1cncc1[C@@](N)(c1ccc(Cl)cc1)c1ccc2c(c1)c(-c1cccc(Cl)c1)cc(=O)n2C [tipifarnib] (first compound 0.006 µM, partner dose 0.01 µM), for which the “cleaved PARP positive nuclei fraction” value was determined as 62.1%.

On to `CC[C@]1(O)C[C@H]2CN(CCc3c([nH]c4ccccc34)[C@@](C(=O)OC)(c3cc4c(cc3OC)N(C=O)[C@H]3[C@@](O)(C(=O)OC)[C@H](OC(C)=O)[C@]5(CC)C=CCN6CC[C@]43[C@@H]65)C2)C1` [vincristine] + c1cc(-c2cnn3cc(-c4ccc(OCCN5CCCCC5)cc4)cnc23)ccn1 [Dorsomorphin] (first compound 0.0001 µM, partner dose 0.4 µM), for which the “cleaved PARP positive nuclei fraction” value amounted to 142%.

For `Cc1ccc(Nc2nccc(N(C)c3ccc4c(C)n(C)nc4c3)n2)cc1S(N)(=O)=O` [Pazopanib] + CN(NC(=O)CC(=O)NN(C)C(=S)c1ccccc1)C(=S)c1ccccc1 [STA4783] (first compound 0.4 µM, partner dose 0.006 µM), the “cleaved PARP positive nuclei fraction” value was found to be 27.7%.

In the case of `Cc1cn(-c2cc(NC(=O)c3ccc(C)c(Nc4nccc(-c5cccnc5)n4)c3)cc(C(F)(F)F)c2)cn1` [nilotinib] + COc1ccc(COc2ccc(Cc3cnc(N)nc3N)cc2OC)cc1 [GW2580] (first compound 0.2 µM, partner dose 1 µM), the “cleaved PARP positive nuclei fraction” value worked out at 127%.

`COc1cc([C@@H]2c3cc4c(cc3[C@@H](O[C@@H]3O[C@@H]5CO[C@@H](C)O[C@H]5[C@H](O)[C@H]3O)[C@H]3COC(=O)[C@H]23)OCO4)cc(OC)c1O` [etoposide] + C[C@@H]1CCN(C(=O)CC#N)C[C@@H]1N(C)c1ncnc2[nH]ccc12 [CP690550] (first compound 0.02 µM, partner dose 1 µM): the “cleaved PARP positive nuclei fraction” value is 69.1%.

Regarding `Cc1cn(-c2cc(NC(=O)c3ccc(C)c(Nc4nccc(-c5cccnc5)n4)c3)cc(C(F)(F)F)c2)cn1` [nilotinib] + Cn1cc(/C=C2\C(=O)Nc3cccnc32)c2ccccc21 [GW441756] (first compound 0.2 µM, partner dose 0.4 µM), the “cleaved PARP positive nuclei fraction” value worked out at 107%.

Take `Cc1cn(-c2cc(NC(=O)c3ccc(C)c(Nc4nccc(-c5cccnc5)n4)c3)cc(C(F)(F)F)c2)cn1` [nilotinib] + O=c1cc(-c2cccc3c2Sc2ccccc2S3)oc(N2CCOCC2)c1 [KU55933] (first compound 0.2 µM, partner dose 1 µM): the “cleaved PARP positive nuclei fraction” value was determined as 180%.

In the case of `CC[C@]1(O)C[C@H]2CN(CCc3c([nH]c4ccccc34)[C@@](C(=O)OC)(c3cc4c(cc3OC)N(C=O)[C@H]3[C@@](O)(C(=O)OC)[C@H](OC(C)=O)[C@]5(CC)C=CCN6CC[C@]43[C@@H]65)C2)C1` [vincristine] + NC(=O)Nc1cc(-c2cccc(F)c2)sc1C(=O)N[C@H]1CCCNC1 [AZD7762] (first compound 0.0001 µM, partner dose 0.02 µM), the “cleaved PARP positive nuclei fraction” value was 92.4%.

For `CCCCCCCCCCCCCCCCCCOP(=O)([O-])OC1CC[N+](C)(C)CC1` [Perifosine] + COc1ccc2c(c1)CCC1C2CCC2(C)C(NCCCCCCN3C(=O)C=CC3=O)CCC12 [U73122] (first compound 0.4 µM, partner dose 0.4 µM), the “cleaved PARP positive nuclei fraction” value came out at 148%.

Consider `Cc1cn(-c2cc(NC(=O)c3ccc(C)c(Nc4nccc(-c5cccnc5)n4)c3)cc(C(F)(F)F)c2)cn1` [nilotinib] + Cc1ccc(NC(=O)c2cccc(N(C)C)c2)cc1NC(=O)c1ccc(O)cc1 [ZM336372] (first compound 0.2 µM, partner dose 2 µM), for which the “cleaved PARP positive nuclei fraction” value was found to be 73.8%.

`CC[C@]1(O)C[C@H]2CN(CCc3c([nH]c4ccccc34)[C@@](C(=O)OC)(c3cc4c(cc3OC)N(C=O)[C@H]3[C@@](O)(C(=O)OC)[C@H](OC(C)=O)[C@]5(CC)C=CCN6CC[C@]43[C@@H]65)C2)C1` [vincristine] + O=C(Nc1cccc(Cl)c1)Nc1ncc(CCNc2ncnc3ccsc23)s1 [SNS314] (first compound 0.0001 µM, partner dose 0.0008 µM): the “cleaved PARP positive nuclei fraction” value stood at 277%.

Take `Cc1ccc(Nc2nccc(N(C)c3ccc4c(C)n(C)nc4c3)n2)cc1S(N)(=O)=O` [Pazopanib] + O=C(Nc1cccc(Cl)c1)Nc1ncc(CCNc2ncnc3ccsc23)s1 [SNS314] (first compound 0.4 µM, partner dose 0.0008 µM): the “cleaved PARP positive nuclei fraction” value was determined as 93.3%.

For `CC[C@]1(O)C[C@H]2CN(CCc3c([nH]c4ccccc34)[C@@](C(=O)OC)(c3cc4c(cc3OC)N(C=O)[C@H]3[C@@](O)(C(=O)OC)[C@H](OC(C)=O)[C@]5(CC)C=CCN6CC[C@]43[C@@H]65)C2)C1` [vincristine] + COc1ccc(-c2ccc3c(N4CCOCC4)nc(N4C[C@@H](C)O[C@@H](C)C4)nc3n2)cc1CO [KU0063794] (first compound 0.0001 µM, partner dose 0.02 µM), the “cleaved PARP positive nuclei fraction” value was 29.2%.

`O=c1[nH]nc(Sc2ncc([N+](=O)[O-])s2)n1-c1ccc2c(c1)OCCO2` + COc1cc(Nc2ncc(F)c(Nc3ccc4c(n3)NC(=O)C(C)(C)O4)n2)cc(OC)c1OC [Tamatinib] (first compound 0.2 µM, partner dose 0.4 µM): the “cleaved PARP positive nuclei fraction” value amounted to 105%.

For the compound `O=C(/C=C/c1cccnc1)NCCCCC1CCN(C(=O)c2ccccc2)CC1` + Cc1cc(N2CCOCC2)cc2[nH]c(-c3c(NC[C@@H](O)c4cccc(Cl)c4)cc[nH]c3=O)nc12 [BMS536924] (first compound 0.01 µM, partner dose 0.2 µM), the “cleaved PARP positive nuclei fraction” value came out at 688%.

For `Cc1cc(Nc2cc(N3CCN(C)CC3)nc(Sc3ccc(NC(=O)C4CC4)cc3)n2)n[nH]1` [Tozasertib] + CC1(C)NC(=O)N(c2ccc([N+](=O)[O-])c(C(F)(F)F)c2)C1=O [nilutamide] (first compound 0.006 µM, partner dose 1 µM), the “cleaved PARP positive nuclei fraction” value came to 52.6%.

As for `O=C(/C=C/c1cccnc1)NCCCCC1CCN(C(=O)c2ccccc2)CC1` + O=S(=O)(c1ccccc1)N(CC(F)(F)F)c1ccc(C(O)(C(F)(F)F)C(F)(F)F)cc1 [T0901317] (first compound 0.01 µM, partner dose 1.4 µM), the “cleaved PARP positive nuclei fraction” value was determined as 528%.

As for `CC[C@]1(O)C[C@H]2CN(CCc3c([nH]c4ccccc34)[C@@](C(=O)OC)(c3cc4c(cc3OC)N(C=O)[C@H]3[C@@](O)(C(=O)OC)[C@H](OC(C)=O)[C@]5(CC)C=CCN6CC[C@]43[C@@H]65)C2)C1` [vincristine] + Cc1cc(N2CCOCC2)cc2[nH]c(-c3c(NC[C@@H](O)c4cccc(Cl)c4)cc[nH]c3=O)nc12 [BMS536924] (first compound 0.0001 µM, partner dose 0.2 µM), the “cleaved PARP positive nuclei fraction” value turned out to be 428%.

As for `O=c1[nH]nc(Sc2ncc([N+](=O)[O-])s2)n1-c1ccc2c(c1)OCCO2` + O=c1cc(-c2cccc3c2Sc2ccccc2S3)oc(N2CCOCC2)c1 [KU55933] (first compound 0.2 µM, partner dose 1 µM), the “cleaved PARP positive nuclei fraction” value came out at 38.4%.

For the compound `COc1cc([C@@H]2c3cc4c(cc3[C@@H](O[C@@H]3O[C@@H]5CO[C@@H](C)O[C@H]5[C@H](O)[C@H]3O)[C@H]3COC(=O)[C@H]23)OCO4)cc(OC)c1O` [etoposide] + O=C1NC(=O)/C(=C/c2ccc(-c3ccc(F)cc3O)o2)S1 [AS252424] (first compound 0.02 µM, partner dose 1 µM), the “cleaved PARP positive nuclei fraction” value turned out to be 75.2%.

`Cc1cn(-c2cc(NC(=O)c3ccc(C)c(Nc4nccc(-c5cccnc5)n4)c3)cc(C(F)(F)F)c2)cn1` [nilotinib] + CCCCCCCCCCCC1=C(O)C(=O)C=C(O)C1=O [Embelin] (first compound 0.2 µM, partner dose 1.2 µM): the “cleaved PARP positive nuclei fraction” value is 85.3%.

Consider `O=c1[nH]nc(Sc2ncc([N+](=O)[O-])s2)n1-c1ccc2c(c1)OCCO2` + CCCCCCCCCCCC1=C(O)C(=O)C=C(O)C1=O [Embelin] (first compound 0.2 µM, partner dose 1.2 µM), for which the “cleaved PARP positive nuclei fraction” value turned out to be 47.4%.

On to `O=c1[nH]nc(Sc2ncc([N+](=O)[O-])s2)n1-c1ccc2c(c1)OCCO2` + O=C(Nc1cccc(Cl)c1)Nc1ncc(CCNc2ncnc3ccsc23)s1 [SNS314] (first compound 0.2 µM, partner dose 0.0008 µM), for which the “cleaved PARP positive nuclei fraction” value came to 98.3%.

Consider `CCCCCCCCCCCCCCCCCCOP(=O)([O-])OC1CC[N+](C)(C)CC1` [Perifosine] + NC(=O)Nc1cc(-c2cccc(F)c2)sc1C(=O)N[C@H]1CCCNC1 [AZD7762] (first compound 0.4 µM, partner dose 0.02 µM), for which the “cleaved PARP positive nuclei fraction” value was determined as 97%.

The values above are taken from the supplement of paper PMC4604168 (melanoma cell lines).
